Drawing on publication PMC5095005, this text covers binding for 5 molecules.

The chains behind the UniProt entries cited, without tags or fusion partners. Where a name states a change or a piece, a line headed by the entry shows the natural chain unless it says otherwise. A line that says so, or that is headed by a name, gives the form on record, which may keep a tag or linker.
UniProt Q07820: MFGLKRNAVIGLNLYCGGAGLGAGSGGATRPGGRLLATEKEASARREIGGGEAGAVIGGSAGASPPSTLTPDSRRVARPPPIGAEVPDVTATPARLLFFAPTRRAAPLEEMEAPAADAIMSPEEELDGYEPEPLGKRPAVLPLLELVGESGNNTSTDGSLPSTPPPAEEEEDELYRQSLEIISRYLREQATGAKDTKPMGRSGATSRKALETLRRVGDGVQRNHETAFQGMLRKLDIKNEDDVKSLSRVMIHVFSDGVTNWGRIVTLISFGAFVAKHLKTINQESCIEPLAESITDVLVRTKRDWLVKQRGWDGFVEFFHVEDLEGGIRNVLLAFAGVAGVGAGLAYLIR
Myc-tagged human MCL-1 2A mutant (Ser64 and Thr70 substituted to Ala) (Q07820, form named): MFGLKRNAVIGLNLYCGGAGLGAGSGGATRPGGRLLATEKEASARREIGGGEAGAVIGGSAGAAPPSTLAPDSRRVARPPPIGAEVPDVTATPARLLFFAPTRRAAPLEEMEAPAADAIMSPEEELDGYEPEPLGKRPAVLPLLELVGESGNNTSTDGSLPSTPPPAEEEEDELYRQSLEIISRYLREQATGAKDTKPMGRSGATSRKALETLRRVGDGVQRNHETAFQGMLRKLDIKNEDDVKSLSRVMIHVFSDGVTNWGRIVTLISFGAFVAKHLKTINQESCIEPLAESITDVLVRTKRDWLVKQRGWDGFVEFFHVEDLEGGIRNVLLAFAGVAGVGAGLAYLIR

Results are given in words; binding and its absence hold for the method and conditions named. In cells and extracts the contact can be indirect. Some binding calls cover weakened binding; strength is not graded here. For some assays here: Sequences can lack the tags named with a protein.

For experiment [1], the target named is Myc-tagged human MCL-1 wild-type (human), Q07820. Nature of the experiment: co-IP; Myc-MCL-1 (wt, 2A or 6A) co-transfected with Noxa in 293T cells for 24 h; CHAPS lysis buffer; which protein was precipitated is not told. The following applies: remark: other sources report otherwise.
Experiment [2] addresses Myc-tagged human MCL-1 2A mutant (Ser64 and Thr70 substituted to Ala) (human) (UniProt Q07820). The description is as above.
The target in experiment [3] is Myc-tagged human MCL-1 wild-type (human), Q07820. Description: co-IP; HA-Noxa, Myc-MCL-1 (wt or 2A) and/or Flag-CDK2 transfected into 293T cells for 24 h; total extracts immunoprecipitated with anti-Myc antibodies; CHAPS lysis buffer. The following applies: remark: other sources report otherwise.
The target in experiment [4] is MCL-1, endogenous in HeLa cells (human (endogenous in HeLa)), Q07820. Nature of the experiment: co-IP; endogenous proteins; HeLa cells treated with cisplatin for 4 h; total extracts immunoprecipitated with anti-CDK2 or anti-MCL-1 antibodies. The following applies: remark: other sources report otherwise.
Experiment [5] has as its target Myc-tagged human MCL-1 2A mutant (Ser64 and Thr70 substituted to Ala) (human) (UniProt Q07820). Description: co-IP; HA-Noxa, Myc-MCL-1 (wt or 2A) and/or Flag-CDK2 transfected into 293T cells for 24 h; total extracts immunoprecipitated with anti-Myc antibodies; CHAPS lysis buffer.

B1: human Noxa co-transfected with MCL-1 in 293T cells (Figure 5A), Q13794 1-54 (protein)
chain: MPGKKARKNAQPSPARAPAELEVECATQLRRFGDKLNFRQKLLNLISKLFCSGT
Regarding B1, the binding entry in experiment [1] was “binds”.

B2: human Noxa co-transfected with MCL-1 in 293T cells (Figure 5A) (protein, UniProt Q13794 1-54)
chain: MPGKKARKNAQPSPARAPAELEVECATQLRRFGDKLNFRQKLLNLISKLFCSGT
Turning to B2, the binding entry in experiment [2] was “binds”.

B3: HA-tagged Noxa, Q13794 1-54 (protein)
chain: MPGKKARKNAQPSPARAPAELEVECATQLRRFGDKLNFRQKLLNLISKLFCSGT
For the molecule B3, the binding entry in experiment [3] is listed as “binds”.

B4: Noxa, endogenous in HeLa cells, Q13794 1-54 (protein)
chain: MPGKKARKNAQPSPARAPAELEVECATQLRRFGDKLNFRQKLLNLISKLFCSGT
Regarding B4, the binding entry in experiment [4] is reported as “binds”.

B5: HA-tagged Noxa (protein, UniProt Q13794 1-54)
chain: MPGKKARKNAQPSPARAPAELEVECATQLRRFGDKLNFRQKLLNLISKLFCSGT
As to B5, the binding entry in experiment [5] is recorded as “binds”.
